PubChem BioAssay AID493246, Drosophila RNAi Screening Center, 2011
Screen: 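Genes fly cells need to grow and stay alive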 (primary screen). Cells: Drosophila Kc and S2R+ cells. Reagent: long dsRNA against Drosophila genes. Measured: 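Cell number per well after knock-down, printed as raw plate values; calls were based on per-plate z-scores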. Scale: Kc cell number and S2R+ cell number: higher = more cells remaining. Rule for the call: 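Active when the per-plate z-score of cell number is 3 or more in the direction of fewer cells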.
The deposit covers about 21,000 reagents; below is a random part of those with a known target gene and a result. In the full data, 429 (2%) were called active. 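Values are raw and not normalised between plates; calls rest on per-plate z-scores that were not deposited.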 A number with no mark means an inactive call. The record does not give: the amount of reagent, the time to read-out.

CG10337 [DRSC02038] | Kc cell number, rep 1: 1.87e6; Kc cell number, rep 2: 1.93e6; S2R+ cell number, rep 1: 1.28e6; S2R+ cell number, rep 2: 2.64e5
CG14618 [DRSC20631] | Kc cell number, rep 1: 1.48e6; Kc cell number, rep 2: 1.55e6; S2R+ cell number, rep 1: 1.06e6; S2R+ cell number, rep 2: 1.20e6
CG9877 [DRSC04587] | Kc cell number, rep 1: 1.91e6; Kc cell number, rep 2: 1.97e6; S2R+ cell number, rep 1: 1.33e6; S2R+ cell number, rep 2: 1.33e6
Gnpat [DRSC16960] | Kc cell number, rep 1: 1.60e6; Kc cell number, rep 2: 1.53e6; S2R+ cell number, rep 1: 9.51e5; S2R+ cell number, rep 2: 1.08e6
Prdm13 [DRSC09970] | Kc cell number, rep 1: 1.46e6; Kc cell number, rep 2: 1.39e6; S2R+ cell number, rep 1: 1.06e6; S2R+ cell number, rep 2: 1.16e6
CG31688 [DRSC02682] | Kc cell number, rep 1: 1.46e6; Kc cell number, rep 2: 1.59e6; S2R+ cell number, rep 1: 1.22e6; S2R+ cell number, rep 2: 3.33e5
CG9222 [DRSC03158] | Kc cell number, rep 1: 1.79e6; Kc cell number, rep 2: 2.16e6; S2R+ cell number, rep 1: 1.22e6; S2R+ cell number, rep 2: 1.41e6
eIF3m [DRSC07142] | Kc cell number, rep 1: 1.19e6; Kc cell number, rep 2: 1.26e6; S2R+ cell number, rep 1: 8.03e5; S2R+ cell number, rep 2: 9.11e5
ACOX1 [DRSC05941] | Kc cell number, rep 1: 1.33e6; Kc cell number, rep 2: 1.42e6; S2R+ cell number, rep 1: 1.14e6; S2R+ cell number, rep 2: 1.16e6
CG34230 [DRSC05317] | Kc cell number, rep 1: 1.52e6; Kc cell number, rep 2: 1.52e6; S2R+ cell number, rep 1: 1.03e6; S2R+ cell number, rep 2: 1.25e6
Cyfip [DRSC15679] | Kc cell number, rep 1: 1.45e6; Kc cell number, rep 2: 1.48e6; S2R+ cell number, rep 1: 1.30e6; S2R+ cell number, rep 2: 1.41e6
Upf3 [DRSC04092] | Kc cell number, rep 1: 1.35e6; Kc cell number, rep 2: 1.43e6; S2R+ cell number, rep 1: 1.06e6; S2R+ cell number, rep 2: 1.11e6
